Assay [1] addresses Human epidermal growth factor receptor 2 (HER2), endogenous (human (endogenous in MDA-MB-361 and BT474)) (UniProt P04626). The assay can be described thus: co-IP.
In assay [2] the target is full-length SORLA-GFP (UniProt Q92673). Kind of assay: co-IP.

Amino acid sequences for entries named in this document (tags omitted). Residues count along the entry.
UniProt Q92673, residues 82-2214: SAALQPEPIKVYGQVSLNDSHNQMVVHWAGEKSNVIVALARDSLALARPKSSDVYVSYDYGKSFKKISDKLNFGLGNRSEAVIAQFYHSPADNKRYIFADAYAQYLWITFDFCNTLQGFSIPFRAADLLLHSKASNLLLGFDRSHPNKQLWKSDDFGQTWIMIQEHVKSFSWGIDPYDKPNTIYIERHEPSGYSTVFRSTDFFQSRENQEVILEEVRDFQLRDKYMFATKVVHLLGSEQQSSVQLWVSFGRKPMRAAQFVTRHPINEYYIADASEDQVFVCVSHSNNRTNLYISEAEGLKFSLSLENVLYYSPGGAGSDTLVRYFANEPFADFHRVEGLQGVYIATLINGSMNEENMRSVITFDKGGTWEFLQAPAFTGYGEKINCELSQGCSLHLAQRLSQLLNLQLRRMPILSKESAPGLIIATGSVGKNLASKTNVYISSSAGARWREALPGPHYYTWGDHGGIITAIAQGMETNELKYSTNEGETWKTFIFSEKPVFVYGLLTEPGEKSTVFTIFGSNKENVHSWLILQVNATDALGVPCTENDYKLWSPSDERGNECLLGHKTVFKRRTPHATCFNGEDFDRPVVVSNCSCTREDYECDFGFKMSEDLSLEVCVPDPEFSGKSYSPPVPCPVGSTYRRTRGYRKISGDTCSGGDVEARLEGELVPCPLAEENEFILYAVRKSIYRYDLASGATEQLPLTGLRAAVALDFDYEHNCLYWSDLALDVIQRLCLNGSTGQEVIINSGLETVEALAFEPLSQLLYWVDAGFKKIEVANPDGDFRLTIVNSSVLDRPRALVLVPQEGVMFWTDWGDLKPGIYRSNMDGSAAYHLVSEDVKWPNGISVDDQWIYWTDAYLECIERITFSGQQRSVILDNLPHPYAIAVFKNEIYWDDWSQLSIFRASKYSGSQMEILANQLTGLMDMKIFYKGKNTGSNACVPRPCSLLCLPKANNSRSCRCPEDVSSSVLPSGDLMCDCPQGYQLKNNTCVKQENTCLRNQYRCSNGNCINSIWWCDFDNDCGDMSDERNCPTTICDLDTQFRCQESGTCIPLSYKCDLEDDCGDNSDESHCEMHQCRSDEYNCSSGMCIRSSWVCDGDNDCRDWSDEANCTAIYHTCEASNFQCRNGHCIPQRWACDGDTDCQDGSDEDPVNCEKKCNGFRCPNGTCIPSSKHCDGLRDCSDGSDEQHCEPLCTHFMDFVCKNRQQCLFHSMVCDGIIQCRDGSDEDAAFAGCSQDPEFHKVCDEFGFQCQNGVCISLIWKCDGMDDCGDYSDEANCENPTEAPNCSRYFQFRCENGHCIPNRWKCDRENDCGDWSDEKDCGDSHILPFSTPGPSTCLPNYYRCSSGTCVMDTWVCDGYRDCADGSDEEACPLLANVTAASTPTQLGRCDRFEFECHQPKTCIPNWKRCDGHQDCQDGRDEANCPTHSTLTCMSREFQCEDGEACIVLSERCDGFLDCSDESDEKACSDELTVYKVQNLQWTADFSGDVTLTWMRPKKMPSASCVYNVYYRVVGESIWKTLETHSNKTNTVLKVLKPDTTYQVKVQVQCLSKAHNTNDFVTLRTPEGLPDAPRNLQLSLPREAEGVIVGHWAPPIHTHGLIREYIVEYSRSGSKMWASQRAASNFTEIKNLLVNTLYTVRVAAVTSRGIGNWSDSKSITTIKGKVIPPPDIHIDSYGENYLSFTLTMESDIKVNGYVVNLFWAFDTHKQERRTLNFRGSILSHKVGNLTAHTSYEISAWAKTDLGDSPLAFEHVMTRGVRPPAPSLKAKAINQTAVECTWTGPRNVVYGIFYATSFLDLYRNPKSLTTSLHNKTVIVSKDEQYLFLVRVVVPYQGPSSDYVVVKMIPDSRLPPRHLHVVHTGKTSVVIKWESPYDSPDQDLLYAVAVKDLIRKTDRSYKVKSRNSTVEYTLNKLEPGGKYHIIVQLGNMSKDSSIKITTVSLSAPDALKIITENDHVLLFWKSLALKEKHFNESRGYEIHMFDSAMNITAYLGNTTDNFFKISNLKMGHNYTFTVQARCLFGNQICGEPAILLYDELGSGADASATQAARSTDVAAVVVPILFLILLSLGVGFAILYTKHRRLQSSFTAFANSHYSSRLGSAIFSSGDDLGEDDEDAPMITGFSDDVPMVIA

No constants are given. Whether binding was seen depends on the method and setting. Binding seen in cells or lysates may run through a third protein. Some binding calls cover weakened binding; strength is not graded here.

For the substance “Sortilin related receptor 1 (SORLA), endogenous (from UniProt Q92673 82-2214)”, in assay [1], the binding result was “binds”.
For the substance “Human epidermal growth factor receptor 2 (HER2), endogenous (from UniProt P04626 23-1255)”, the binding entry in assay [2] is given as “binds”.

For the origin of these results see doi:10.1101/299586.
